Laboratory results taken from doi:10.1101/2020.05.04.075952.
Residue numbers refer to the chain shown, from its start. No constants are given. Whether binding was seen depends on the method and setting. Binding seen in cells or lysates may run through a third protein. Some results given as binding are weak or reduced against the parent protein; the word gives no strength. Where a sequence is shown, tags or fusion partners need not be part of it.

What was measured:
[1] = target: T1, ASPP2-REVD mutant (R921E and V922D) (human) (UniProt Q13625); experiment: co-IP
T1 sequence: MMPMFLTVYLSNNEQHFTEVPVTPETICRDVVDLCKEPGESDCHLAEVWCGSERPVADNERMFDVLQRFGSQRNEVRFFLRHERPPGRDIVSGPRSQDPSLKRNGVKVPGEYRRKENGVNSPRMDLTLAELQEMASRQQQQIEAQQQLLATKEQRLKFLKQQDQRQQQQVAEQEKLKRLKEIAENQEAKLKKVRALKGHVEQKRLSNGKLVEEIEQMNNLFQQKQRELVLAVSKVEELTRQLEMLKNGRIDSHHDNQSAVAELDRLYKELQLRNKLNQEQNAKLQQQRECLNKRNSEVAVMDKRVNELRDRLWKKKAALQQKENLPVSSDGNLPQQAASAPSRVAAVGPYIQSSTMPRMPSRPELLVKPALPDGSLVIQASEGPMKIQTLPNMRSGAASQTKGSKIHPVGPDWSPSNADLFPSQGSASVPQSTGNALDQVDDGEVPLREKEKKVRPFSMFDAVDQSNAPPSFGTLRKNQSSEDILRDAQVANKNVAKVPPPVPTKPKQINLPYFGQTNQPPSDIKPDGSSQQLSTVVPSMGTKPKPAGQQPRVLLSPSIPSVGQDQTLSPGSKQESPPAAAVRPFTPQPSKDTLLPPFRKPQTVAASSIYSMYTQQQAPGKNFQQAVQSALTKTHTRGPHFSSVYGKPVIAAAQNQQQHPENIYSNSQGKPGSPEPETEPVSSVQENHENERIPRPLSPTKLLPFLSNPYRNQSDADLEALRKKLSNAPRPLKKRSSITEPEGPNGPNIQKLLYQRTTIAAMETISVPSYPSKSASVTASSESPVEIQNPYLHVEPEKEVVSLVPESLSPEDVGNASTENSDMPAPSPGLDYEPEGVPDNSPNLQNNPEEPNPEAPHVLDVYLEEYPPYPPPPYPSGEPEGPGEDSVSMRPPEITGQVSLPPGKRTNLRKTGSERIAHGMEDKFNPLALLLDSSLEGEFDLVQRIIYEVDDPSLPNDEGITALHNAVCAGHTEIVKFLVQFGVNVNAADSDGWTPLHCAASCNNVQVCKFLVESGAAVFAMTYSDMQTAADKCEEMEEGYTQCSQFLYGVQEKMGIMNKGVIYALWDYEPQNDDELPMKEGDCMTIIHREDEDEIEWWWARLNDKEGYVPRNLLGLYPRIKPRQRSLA

[2] = target: T2, V5-human ASPP2 full-length (human) (UniProt Q13625); experiment: co-IP
T2 sequence: T1 sequence with E921R, D922V

- binding [1]: binds
- binding [2]: binds
B1: HA-LATS2 (enzyme, UniProt Q7TSJ6 1-1042)
chain: MRPKTFPATTYSGNSRQRLQEIREGLKQPSKASTQGLLVGPNSDTSLDAKVLGSKDASRQQQMRATPKFGPYQKALREIRYSLLPFANESGTSAAAEVNRQMLQELVNAGCDQEMAGRALKQTGSRSIEAALEYISKMGYLDPRNEQIVRVIKQTSPGKGLAPTPVTRRPSFEGTGEALPSYHQLGGANYEGPAALEEMPRQYLDFLFPGAGAGTHGAQAHQHPPKGYSTAVEPSAHFPGTHYGRGHLLSEQPGYGVQRSSSFQNKTPPDAYSSMAKAQGGPPASLTFPAHAGLYTASHHKPAATPPGAHPLHVLGTRGPTFTGESSAQAVLAPSRNSLNADLYELGSTVPWSAAPLARRDSLQKQGLEASRPHVAFRAGPSRTNSFNNPQPEPSLPAPNTVTAVTAAHILHPVKSVRVLRPEPQTAVGPSHPAWVAAPTAPATESLETKEGSAGPHPLDVDYGGSERRCPPPPYPKHLLLPSKSEQYSVDLDSLCTSVQQSLRGGTEQDRSDKSHKGAKGDKAGRDKKQIQTSPVPVRKNSRDEEKRESRIKSYSPYAFKFFMEQHVENVIKTYQQKVSRRLQLEQEMAKAGLCEAEQEQMRKILYQKESNYNRLKRAKMDKSMFVKIKTLGIGAFGEVCLACKLDTHALYAMKTLRKKDVLNRNQVAHVKAERDILAEADNEWVVKLYYSFQDKDSLYFVMDYIPGGDMMSLLIRMEVFPEHLARFYIAELTLAIESVHKMGFIHRDIKPDNILIDLDGHIKLTDFGLCTGFRWTHNSKYYQKGNHMRQDSMEPGDLWDDVSNCRCGDRLKTLEQRAQKQHQRCLAHSLVGTPNYIAPEVLLRKGYTQLCDWWSVGVILFEMLVGQPPFLAPTPTETQLKVINWESTLHIPTQVRLSAEARDLITKLCCAADCRLGRDGADDLKAHPFFNTIDFSRDIRKQPAPYVPTISHPMDTSNFDPVDEESPWHEASGESAKAWDTLASPSSKHPEHAFYEFTFRRFFDDNGYPFRCPKPSEPAESADPGDADLEGAAEGCQPVYV
